Library screening results

By UniProt entry, the sequences of proteins in these tests, tags left out.
UniProt E9BF75, entry or part of it: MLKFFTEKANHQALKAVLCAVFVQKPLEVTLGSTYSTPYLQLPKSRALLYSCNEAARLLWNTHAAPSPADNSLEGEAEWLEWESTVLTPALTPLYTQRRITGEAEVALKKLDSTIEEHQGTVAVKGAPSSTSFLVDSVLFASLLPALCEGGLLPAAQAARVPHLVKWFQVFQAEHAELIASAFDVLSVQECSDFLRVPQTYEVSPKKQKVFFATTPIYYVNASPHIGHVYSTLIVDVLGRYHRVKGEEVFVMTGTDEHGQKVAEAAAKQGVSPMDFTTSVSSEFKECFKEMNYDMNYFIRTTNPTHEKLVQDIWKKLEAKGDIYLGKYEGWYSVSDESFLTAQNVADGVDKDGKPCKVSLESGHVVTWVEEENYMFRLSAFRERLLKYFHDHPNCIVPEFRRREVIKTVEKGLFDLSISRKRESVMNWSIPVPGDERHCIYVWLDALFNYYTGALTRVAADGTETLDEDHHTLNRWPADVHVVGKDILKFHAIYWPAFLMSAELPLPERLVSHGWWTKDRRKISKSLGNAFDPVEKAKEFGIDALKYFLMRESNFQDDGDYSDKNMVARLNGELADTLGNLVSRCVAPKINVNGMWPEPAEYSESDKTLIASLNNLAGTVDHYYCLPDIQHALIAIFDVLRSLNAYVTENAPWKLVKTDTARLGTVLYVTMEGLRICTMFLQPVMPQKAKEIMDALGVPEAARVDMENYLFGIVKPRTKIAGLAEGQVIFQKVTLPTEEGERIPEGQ

LdMetRS: 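Methionyl-tRNA synthetase (putative), Leishmania donovani (UniProt E9BF75). Primary screen of methionyl-tRNA synthetase; the read-out is not stated. The test concentration is not given. The values are filed as inhibition. Size under these conditions: about 68,000 compounds, about 24 of them at 50% or above in at least one test.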
Mtb heat-shock: 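Assay on Mycobacterium tuberculosis, filed only as a heat shock assay from Cornell; the read-out is not stated. The concentration is filed as 10 mM, unlikely as a test dose, so the dose is not known. Direction is inferred from retests: higher values go with stronger inhibition. About 69,000 compounds were tested under these conditions; 1.4% (about 930) showed 50% or more at least once.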

Results are percentages, as filed. The controls that fix the scale are not given in the record; negative values are as filed. This is an unselected part of the compounds tested.

CC(=O)Nc1cc(C(=O)N2CCOCC2c2ccc(C)o2)ccc1F (stereo not drawn) gave LdMetRS: 9.756%; Mtb heat-shock: 13.62%.
O=C(NCC1CC1)[C@@H]1C[C@@H]2OCCN[C@@H]2C1 gave LdMetRS: 7.534%.
COCC(C)NCc1ccc2[nH]c(C)c(C)c2c1 (stereo not drawn) gave LdMetRS: 13.75%; Mtb heat-shock: -11.87%.
C[C@@H]1CN(c2nc3c(cc2C(N)=O)CCC3)CC[C@@]1(O)C1CCC1 gave LdMetRS: 16.84%; Mtb heat-shock: -2.753%.
COCCN1C[C@@H]2CN(C(=O)[C@H]3CCCO3)C[C@@H]2C1=O gave LdMetRS: 7.744%.
CN(CCNC(=O)N1CCCC1)C(=O)OC(C)(C)C gave LdMetRS: 10.87%; Mtb heat-shock: 17.31%.
CC1CCCN(Cc2csc(-c3ncccn3)n2)CC1 (stereo not drawn) gave LdMetRS: 21.27%; Mtb heat-shock: 43.03%.
O=C(O)C(F)(F)F.[H][C@]12CCC[C@@]1(COCc1cccnc1)CN(C(=O)c1ocnc1C)C2 gave Mtb heat-shock: -12.93%.
[H][C@@]12CCN(C[C@@H]1CN1CCOCC1)[C@@H](CNC(=O)Nc1ccccc1)C2 gave Mtb heat-shock: -0.1209%.
O=C(N1CC(c2cccnc2)C1)C1(c2ccc(F)cc2)CCOCC1 gave LdMetRS: 19.15%; Mtb heat-shock: -6.003%.
[H][C@@]12CN(C(=O)Cc3cccs3)C[C@]1([H])OCCN2Cc1csc(C)n1 gave Mtb heat-shock: -1.992%.
NC(=O)Cn1ccc(NC(=O)C2(c3cccc(F)c3)CCC2)n1 gave LdMetRS: 12.37%; Mtb heat-shock: -23.41%.
Cc1nc(CCNC(=O)NCC(O)c2cccc(Cl)c2)cs1 (stereo not drawn) gave LdMetRS: 0.5435%; Mtb heat-shock: -14.32%.
[H][C@]12CC[C@@]3(N=C(c4ccccc4)NC3=O)[C@@]1([H])CN(C(=O)c1ccoc1)C2 gave Mtb heat-shock: -10.55%.
Cc1ccccc1CC(=O)N(C)C1CCN(c2ccccn2)CC1 gave LdMetRS: 14.69%; Mtb heat-shock: -3.443%.
CC(C)n1cnnc1CNC(=O)c1cnn(Cc2ccccc2)c1 gave LdMetRS: 13.7%; Mtb heat-shock: -1.832%.
CCC1c2cccn2CCN1C(=O)c1cc(OC)nc(OC)n1 (stereo not drawn) gave LdMetRS: -0.8499%; Mtb heat-shock: -14.39%.
O=C1CCC2(CCCN(C(=O)Cc3cccs3)C2)N1 (stereo not drawn) gave LdMetRS: 13.89%; Mtb heat-shock: 0.4429%.
[H][C@]12CC[C@]([H])(CN(Cc3ccccn3)C1)N(Cc1cc(C(C)(C)C)[nH]n1)C2 gave Mtb heat-shock: 99.23%.
CN(C)C(=O)C1CN(Cc2ccc(C#N)cc2)c2ccccc2O1 (stereo not drawn) gave LdMetRS: 13.77%; Mtb heat-shock: -0.8005%.
O=C1NCCCCC1NC(=O)N1CCCc2ccccc21 (stereo not drawn) gave LdMetRS: 11.25%; Mtb heat-shock: -11.72%.
O=C(c1ccncc1)N1CCC2(CC1)CC(Oc1cccnc1)CO2 (stereo not drawn) gave LdMetRS: 14.16%; Mtb heat-shock: 10.25%.
[H][C@@]12COC[C@]1(COC)CN(S(=O)(=O)c1cccnc1)C2 gave Mtb heat-shock: -2.077%.
CNC(=O)C1CCC2(CCN(c3nncs3)CC2)CO1 (stereo not drawn) gave LdMetRS: 16.79%.
COc1cccc(-c2nc(CNC(C)Cn3cccn3)cs2)c1 (stereo not drawn) gave LdMetRS: 3.133%; Mtb heat-shock: 89.4%.
CC(C)c1ncc(CN2CCCC(CO)C2)cn1 (stereo not drawn) gave LdMetRS: 10.62%; Mtb heat-shock: -9.715%.
CCC(=O)c1ccc(OCC(=O)NC(C)Cc2cc(C)n[nH]2)cc1 (stereo not drawn) gave LdMetRS: 12.59%; Mtb heat-shock: -18.66%.
Cc1ccc(NCc2ccccc2C#N)cc1-n1cnnn1 gave LdMetRS: 7.888%; Mtb heat-shock: -24.82%.
Cc1nc(C)n(CC2CCCN(CC(=O)Nc3cccnc3)C2)n1 (stereo not drawn) gave LdMetRS: 9.348%; Mtb heat-shock: -0.565%.
Fc1ccc(-c2nc(CNCCn3cccn3)cs2)cc1 gave LdMetRS: 24.04%; Mtb heat-shock: 66.63%.
CN(CCOc1cccc(CN)c1)C1CCOCC1 gave LdMetRS: 11.23%; Mtb heat-shock: -7.059%.
COc1ccc(-c2ccc(C(=O)N3CCOCC3CC(=O)O)o2)cc1 (stereo not drawn) gave LdMetRS: 15.46%; Mtb heat-shock: -9.001%.
Cc1nc2c(N(C)Cc3ccnn3C)nc(N)nc2n1C gave LdMetRS: 34.49%; Mtb heat-shock: 4.914%.
COc1ccc(-c2noc(Cn3cc(C)cn3)n2)c(OC)c1OC gave LdMetRS: 15.24%; Mtb heat-shock: 4.656%.
COc1nc2c(cc1C(=O)NCc1nc(CSC)no1)CCC2 gave LdMetRS: 10.18%; Mtb heat-shock: 3.078%.
COc1ccc(Cl)cc1-c1cc(NC(=O)C2COCCO2)[nH]n1 (stereo not drawn) gave LdMetRS: 25.44%; Mtb heat-shock: -8.627%.
Cc1cc(CCCC(=O)NC2CCN(C)C2=O)c(C)s1 (stereo not drawn) gave LdMetRS: 10.82%; Mtb heat-shock: -17.15%.
CCOc1ncccc1-c1cc2c(cc1C(N)=O)OCO2 gave LdMetRS: 3.621%; Mtb heat-shock: 6.61%.
O=C(c1ccncc1)N1CCc2ncnc(C3CCOC3)c2CC1 (stereo not drawn) gave LdMetRS: 18.13%; Mtb heat-shock: 0.3337%.
CN1CCC(N2C[C@H](O)C[C@H]2c2nc(Cc3ccccc3)no2)CC1 gave LdMetRS: 1.099%; Mtb heat-shock: -5.87%.
CCSCCC(=O)N1CCc2[nH]nc(COc3ccccc3)c2C1 gave LdMetRS: 14.71%; Mtb heat-shock: 11.06%.
CCn1cc(N2Cc3nc(N4CCOCC4)ncc3C2=O)cn1 gave LdMetRS: 10.37%; Mtb heat-shock: -3.536%.

Source: ChEMBL document CHEMBL3988442, “University of Dundee, Small-Polar-MMV Screening Library” (2021).